{"sequences": {"note": "By UniProt entry, the sequences of proteins in these tests, tags left out.", "UniProt P00520": "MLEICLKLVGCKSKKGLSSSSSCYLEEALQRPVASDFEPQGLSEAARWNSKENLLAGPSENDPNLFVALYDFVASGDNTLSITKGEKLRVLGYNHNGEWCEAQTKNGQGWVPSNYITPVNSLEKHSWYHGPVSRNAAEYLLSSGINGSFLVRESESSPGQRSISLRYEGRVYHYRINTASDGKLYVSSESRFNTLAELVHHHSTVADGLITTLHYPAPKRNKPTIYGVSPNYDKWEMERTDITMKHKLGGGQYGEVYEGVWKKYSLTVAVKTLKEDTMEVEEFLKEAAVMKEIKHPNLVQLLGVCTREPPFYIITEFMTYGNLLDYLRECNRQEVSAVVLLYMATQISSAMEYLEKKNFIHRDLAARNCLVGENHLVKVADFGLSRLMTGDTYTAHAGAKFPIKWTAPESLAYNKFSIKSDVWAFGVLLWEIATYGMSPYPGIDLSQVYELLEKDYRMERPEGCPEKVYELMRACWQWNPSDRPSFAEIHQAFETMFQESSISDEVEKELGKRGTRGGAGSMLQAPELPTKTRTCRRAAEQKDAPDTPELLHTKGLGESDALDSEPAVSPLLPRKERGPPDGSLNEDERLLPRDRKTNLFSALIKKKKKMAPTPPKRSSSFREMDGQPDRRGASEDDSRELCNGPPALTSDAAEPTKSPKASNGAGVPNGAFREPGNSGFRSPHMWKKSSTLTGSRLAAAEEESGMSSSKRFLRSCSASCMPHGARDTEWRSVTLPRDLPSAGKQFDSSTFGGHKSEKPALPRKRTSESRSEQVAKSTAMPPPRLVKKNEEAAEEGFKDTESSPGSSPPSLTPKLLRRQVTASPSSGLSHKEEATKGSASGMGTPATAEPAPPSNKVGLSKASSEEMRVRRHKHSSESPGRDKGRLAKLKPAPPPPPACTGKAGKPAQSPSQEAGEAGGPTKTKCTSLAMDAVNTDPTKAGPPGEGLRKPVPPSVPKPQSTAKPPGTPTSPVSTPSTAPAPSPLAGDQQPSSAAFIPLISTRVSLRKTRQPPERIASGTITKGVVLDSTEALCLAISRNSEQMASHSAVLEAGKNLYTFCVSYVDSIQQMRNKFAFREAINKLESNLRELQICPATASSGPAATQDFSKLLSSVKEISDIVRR"}, "source": "patent US20160103133A1", "key": {"[1]": {"biological_target": "Abl (endogenous, mouse intestinal tumors) (mouse) (UniProt P00520)", "assay": "co-immunoprecipitation from tumor lysates, western blotting with anti-Abl and anti-Dab1"}, "[2]": {"biological_target": "Abl (endogenous, mouse intestinal tumors) (mouse) (UniProt P00520)", "assay": "co-immunoprecipitation from tumor lysates (FIG. 10B)"}}, "note": "No constants are given. Whether binding was seen depends on the method and setting. In cells and extracts the contact can be indirect. Some results given as binding are weak or reduced against the parent protein; the word gives no strength."}
{"binder": "Dab1 (endogenous, mouse intestinal tumors) (protein, UniProt P97318 1-588, looked up) MSTETELQVAVKTSAKKDSRKKGQDRSEATLIKRFKGEGVRYKAKLIGIDEVSAARGDKLCQDSMMKLKGVVAGARSKGEHKQKIFLTISFGGIKIFDEKTGALQHHHAVHEISYIAKDITDHRAFGYVCGKEGNHRFVAIKTAQAAEPVILDLRDLFQLIYELKQREELEKKAQKDKQCEQAVYQTILEEDVEDPVYQYIVFEAGHEPIRDPETEENIYQVPTSQKKEGVYDVPKSQPNSQPLEDFESRFAAATPNRNLSMDFDELLEATKVSAVTQLELFGDMSTPPDITSPPTPATPGDAFLPSSSQTLPGSADVFGSMSFGTAAVPSGYVAMGAVLPSFWGQQPLVQQQIAMGAQPPVAQVIPGAQPIAWGQPGLFPATQQAWPTVAGQFPPAAFMPTQTVMPLAAAMFQGPLTPLATVPGTNDSARSSPQSDKPRQKMGKESFKDFQMVQPPPVPSRKPDQPSLTCTSEAFSSYFNKVGVAQDTDDCDDFDISQLNLTPVTSTTPSTNSPPTPAPRQSSPSKSSASHVSDPTADDIFEEGFESPSKSEEQEAPDGSQASSTSDPFGEPSGEPSGDNISPQDGS", "values": [{"measurement": "binding", "setting": "[1]", "result": "binds"}, {"measurement": "binding", "setting": "[2]", "result": "binds"}]}
